These are yes or no findings as the source states them, for the method shown. In cells and extracts the contact can be indirect. A yes stands for co-enrichment or nearness to the bait. Other partners may have been found.
Biological target: APEX2-tagged μOR (human) (human) (UniProt P35372)
Assay: proximity labelling

Chains of the proteins cited; added tags and fusions are not shown.
UniProt P35372, whole entry: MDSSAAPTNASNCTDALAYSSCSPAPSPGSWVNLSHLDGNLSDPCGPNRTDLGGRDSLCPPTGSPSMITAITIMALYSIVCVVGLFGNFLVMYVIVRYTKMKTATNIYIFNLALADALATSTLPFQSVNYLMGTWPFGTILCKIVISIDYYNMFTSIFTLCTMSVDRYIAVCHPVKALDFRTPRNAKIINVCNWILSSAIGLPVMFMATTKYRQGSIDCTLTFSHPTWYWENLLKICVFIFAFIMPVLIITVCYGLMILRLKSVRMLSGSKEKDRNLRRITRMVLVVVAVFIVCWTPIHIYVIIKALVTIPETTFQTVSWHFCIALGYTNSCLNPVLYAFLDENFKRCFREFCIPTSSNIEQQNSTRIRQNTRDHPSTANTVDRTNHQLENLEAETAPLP

binding: binds
Substance: ARRB2 (from UniProt P32121 1-409)
